The values that follow come from the supplement of paper PMC6331611.

± gives the standard deviation of the averaged measurements. Whole data set: some 1,600 compounds, median “normalized growth (OD600, IQM-normalized) in LPM” near 1, cut for the lowest 2% near 0.014. This is one part of the list.

The test system of this assay is Salmonella enterica serovar Typhimurium SL1344. As to the kind of experiment: normalized growth (OD600, IQM-normalized) in LPM (fraction of plate interquartile mean); higher = more bacterial growth (less inhibition). To be noted: LPM pH 5.8; 10 µM; 16 h.
Compound `NC(=O)c1ccc[n+]([C@@H]2O[C@H](COP(=O)([O-])OP(=O)(O)OC[C@H]3O[C@@H](n4cnc5c(N)ncnc54)[C@H](O)[C@@H]3O)[C@@H](O)[C@H]2O)c1` returned a normalized growth of 1.08 ± 0.019.

Regarding `NCC(=O)CCC(=O)O`, the normalized growth was 0.864 ± 0.027.

`O=C(CCCN1CCC(O)(c2ccc(Cl)cc2)CC1)c1ccc(F)cc1` yielded a normalized growth of 0.944 ± 0.032.

In turn, `O=C(O)/C=C/C(=O)O` showed a normalized growth of 0.948 ± 0.046.

The compound `O=C(O)C[C@H](O)C[C@H](O)/C=C/c1c(C2CC2)nc2ccccc2c1-c1ccc(F)cc1` displayed a normalized growth of 1.19 ± 0.13.

In the case of `Cc1ccc(C)c(OCCCC(C)(C)C(=O)O)c1`, the normalized growth worked out at 1.08 ± 0.015.

`CC1(C)[C@@H](O)CC[C@]2(C)[C@H]3C(=O)C=C4[C@@H]5C[C@@](C)(C(=O)O)CC[C@]5(C)CC[C@@]4(C)[C@]3(C)CC[C@@H]12` showed a normalized growth of 0.906 ± 0.073.

As to `C[C@]12CCC(=O)C=C1C=C[C@@H]1[C@@H]2CC[C@@]2(C)[C@H]1CC[C@@]21CCC(=O)O1`, the normalized growth was 1.04 ± 0.036.

`COCCOC(=O)C1=C(C)NC(C)=C(C(=O)OC(C)C)C1c1cccc([N+](=O)[O-])c1` (stereo not drawn) had a normalized growth of 0.944 ± 0.031.

For `NCCS`, the normalized growth amounted to 1.09 ± 0.086.

For `CN1C(C(=O)Nc2ccccn2)=C(O)c2ccccc2S1(=O)=O`, the normalized growth was determined as 1.069 ± 0.0048.

With `COc1c(C)c2c(c(O)c1C/C=C(\C)CCC(=O)OCCN1CCOCC1)C(=O)OC2`, the normalized growth was 1.01 ± 0.035.

`Cc1c(NC(C)C)c(=O)n(-c2ccccc2)n1C` showed a normalized growth of 0.981 ± 0.15.

In turn, `NCCc1cc[nH]n1` registered a normalized growth of 0.973 ± 0.14.

`COc1ccc([C@@H]2Sc3ccccc3N(CCN(C)C)C(=O)[C@@H]2OC(C)=O)cc1` came in with a normalized growth of 0.958 ± 0.034.

As for `CN(C)CCN(Cc1ccc(Cl)cc1)c1ccccn1`, the normalized growth was 0.988 ± 0.041.

As to `CCCCCCCCCCOc1cc2c(O)c(C(=O)OCC)cnc2cc1OCC`, the normalized growth turned out to be 1.01 ± 0.03.

For the compound `CC(C[N+](C)(C)C)OC(N)=O` (stereo not drawn), the normalized growth was determined as 0.904 ± 0.054.

On to `O=C(O)CCCC[C@@H]1CCSS1`, for which the normalized growth was determined as 0.799 ± 0.033.

Consider `Cc1cccc(Nc2ccncc2S(=O)(=O)NC(=O)NC(C)C)c1`, for which the normalized growth worked out at 1.09 ± 0.088.

`CN(C)c1cc(NC(=O)CNC(C)(C)C)c(O)c2c1C[C@H]1C[C@H]3[C@H](N(C)C)C(O)=C(C(N)=O)C(=O)[C@@]3(O)C(O)=C1C2=O`: the normalized growth stood at 0.962 ± 0.053.

`CC1(C)O[C@@H]2[C@@H](CO[C@@]3(COS(N)(=O)=O)OC(C)(C)O[C@@H]23)O1` gave a normalized growth of 0.931 ± 0.034.

In turn, `COc1cc(NS(=O)(=O)c2ccc(N)cc2)nc(OC)n1` returned a normalized growth of 1.4 ± 0.14.

Consider `CC[N+](CC)(CC(=O)Nc1c(C)cccc1C)Cc1ccccc1`, for which the normalized growth was found to be 0.978 ± 0.011.

For the compound `O=C1N=C(O)NC1(c1ccccc1)c1ccccc1`, the normalized growth was 0.991 ± 0.094.

Consider `CC(=O)OCC(=O)[C@@]1(O)[C@H](OC(C)=O)C[C@H]2[C@@H]3CCC4=CC(=O)C=C[C@]4(C)[C@@]3(F)[C@@H](O)C[C@@]21C`, for which the normalized growth is 0.892 ± 0.038.

Regarding `CC(C)Cn1cnc2c(N)nc3ccccc3c21`, the normalized growth was found to be 0.975 ± 0.0099.

`NC(=O)N1c2ccccc2CC(=O)c2ccccc21`: the normalized growth came to 0.978 ± 0.15.

For the compound `Cc1nnc(SCC2=C(C(=O)O)N3C(=O)[C@@H](NC(=O)Cn4cnnn4)[C@H]3SC2)s1`, the normalized growth is 0.755 ± 0.017.

`CCCC(=O)O[C@]1(C(=O)CO)CC[C@H]2[C@@H]3CCC4=CC(=O)CC[C@]4(C)[C@H]3[C@@H](O)C[C@@]21C`: the normalized growth was 0.948 ± 0.033.

On to `CC1(C)S[C@@H]2[C@H](NC(=O)COc3ccccc3)C(=O)N2[C@H]1C(=O)O`, for which the normalized growth came out at 0.961 ± 0.025.

Take `COc1ccc2c3c1O[C@H]1C[C@@H](O)C=C[C@@]31CCN(C)C2`: the normalized growth was 0.9358 ± 0.0085.

As for `CC(C)NC(=N)NC(=N)Nc1ccc(Cl)cc1`, the normalized growth amounted to 0.878 ± 0.042.

Take `S=c1[nH]cnc2nc[nH]c12`: the normalized growth came to 0.518 ± 0.018.

Take `C[C@H]1O[C@@H](O[C@H]2[C@@H](O)C[C@H](O[C@H]3[C@@H](O)C[C@H](O[C@H]4CC[C@@]5(C)[C@H](CC[C@@H]6[C@@H]5CC[C@]5(C)[C@@H](C7=CC(=O)OC7)CC[C@]65O)C4)O[C@@H]3C)O[C@@H]2C)C[C@H](O)[C@@H]1O`: the normalized growth was found to be 0.932 ± 0.017.

`CC(=O)CC(c1ccc([N+](=O)[O-])cc1)c1c(O)c2ccccc2oc1=O` (stereo not drawn) yielded a normalized growth of 1.01 ± 0.021.

`CCCCCCCCNC(C)C(O)c1ccc(SC(C)C)cc1` (stereo not drawn): the normalized growth was 1.055 ± 0.0087.

In turn, `CC(=O)O[C@]1(C(C)=O)CC[C@H]2[C@@H]3C=C(C)C4=CC(=O)CC[C@]4(C)[C@H]3CC[C@@]21C` returned a normalized growth of 1.84 ± 0.093.

`NC[C@H]1O[C@H](O[C@H]2[C@H](O)[C@@H](O[C@H]3O[C@H](CO)[C@@H](O)[C@H](N)[C@H]3O)[C@H](N)C[C@@H]2N)[C@H](N)[C@@H](O)[C@@H]1O`: the normalized growth turned out to be 1.04 ± 0.016.

Compound `Cc1c(C)c2c(c(C)c1O)CCC(C)(CCCC(C)CCCC(C)CCCC(C)C)O2` (stereo not drawn) [alpha-TOCHOPHEROL] had a normalized growth of 1.15 ± 0.11.

As for `Nc1nc(=O)[nH]cc1F`, the normalized growth was 0.742 ± 0.12.

`CC[C@@]1(O)C(=O)OCc2c1cc1n(c2=O)Cc2cc3c(CN(C)C)c(O)ccc3nc2-1` came in with a normalized growth of 1 ± 0.022.

With `Nc1nnc(-c2cccc(Cl)c2Cl)c(N)n1`, the normalized growth came to 1 ± 0.028.

In turn, `C#CC1(O)CC[C@H]2[C@@H]3CCC4=CC(=O)CC[C@@H]4[C@H]3CC[C@@]21CC` (stereo partly drawn) came in with a normalized growth of 0.941 ± 0.024.

The compound `CC1=C(C(=O)O)N2C(=O)[C@@H](NC(=O)[C@H](N)c3ccccc3)[C@H]2SC1` displayed a normalized growth of 0.912 ± 0.069.

The compound `CC[C@H](C)C(=O)O[C@H]1C[C@H](O)C=C2C=C[C@H](C)[C@H](CC[C@@H](O)C[C@@H](O)CC(=O)O)[C@H]21` yielded a normalized growth of 0.961 ± 0.048.

Compound `CC(C)(C)NCC(O)COc1cccc2c1CC(O)C(O)C2` (stereo not drawn) registered a normalized growth of 0.945 ± 0.026.

Take `O=C(c1cccnc1)N1CCOCC1`: the normalized growth amounted to 0.959 ± 0.049.

As to `OCC(S)CS` (stereo not drawn), the normalized growth came out at 0.695 ± 0.06.

The compound `COc1ccc2cc3[n+](cc2c1OC)CCc1cc2c(cc1-3)OCO2` yielded a normalized growth of 1.04 ± 0.024.

`COc1ccc2c(c1)c(CC(=O)OCC(=O)O)c(C)n2C(=O)c1ccc(Cl)cc1` gave a normalized growth of 1.109 ± 0.01.

`Cc1c2oc3c(C)ccc(C(=O)N[C@@H]4C(=O)N[C@H](C(C)C)C(=O)N5CCC[C@H]5C(=O)N(C)CC(=O)N(C)[C@@H](C(C)C)C(=O)O[C@@H]4C)c3nc-2c(C(=O)N[C@@H]2C(=O)N[C@H](C(C)C)C(=O)N3CCC[C@H]3C(=O)N(C)CC(=O)N(C)[C@@H](C(C)C)C(=O)O[C@@H]2C)c(N)c1=O` displayed a normalized growth of 1.13 ± 0.033.

For `CC(=O)NC[C@H]1CN(c2ccc(N3CCOCC3)c(F)c2)C(=O)O1`, the normalized growth came out at 0.971 ± 0.044.

Take `O=C1C(O)=C(O)C(=O)C(O)=C1O`: the normalized growth was 1.02 ± 0.014.

On to `Cc1nccn1CC1CCc2c(c3ccccc3n2C)C1=O` (stereo not drawn), for which the normalized growth was 0.998 ± 0.039.

Take `NC(=O)c1cc[n+](CC2=C(C(=O)[O-])N3C(=O)[C@@H](NC(=O)Cc4cccs4)[C@H]3SC2)cc1`: the normalized growth came out at 0.991 ± 0.077.

The compound `N=C(N)N1CCc2ccccc2C1` showed a normalized growth of 0.919 ± 0.095.

In turn, `CC(=O)/N=c1/sc(S(N)(=O)=O)nn1C` came in with a normalized growth of 0.898 ± 0.021.
